Patent US11175282B2, “Method for predicting and monitoring clinical response to immunomodulatory therapy” (BIOHOPE Scientific Solutions for Human Health S.L., priority 2017, dated 2021)
For at least one compound, name, drawing or mass did not settle the structure.

Experiments:
stimulated human PBMCs = test: Liquid media serial dilution assay in standard 96 well microplate, resazurin read-out; assay type: cell-based
Experimental: Human PBMC were extracted for Buffy coat bags from blood bank volunteer donation using density gradient centrifugation in adequate hydrophilic isosmotic polysaccharide solutions with a density of 1.077 g/ml (Pancoll, PAN BIOTECH GmbH or Ficoll, GE Healthcare) at 760 G during 20 minutes at RT. Cells were extracted with pipette from the gradient interphase and then washed in HBSS w/o Ca, Mg and Phenol red (Lonza), and resuspended in X-VIVO 15 (Lonza) medium. Obtained cells were frozen in cryovials with serum free medium (Profreeze-CDM, Lonza) DMSO (Sigma Aldrich) 7.5% and storage until use in liquid nitrogen.
A few days later, removed vials from liquid nitrogen were immediately thawed in a 37° C. water bath for 2 minutes. […] After supernatant discard, cells were re-suspended in X-VIVO medium for further count and viability quantification.
After thawing PBMCs viability was quantified by trypan blue and Neubauer chamber. […]
After 10-12 hours of incubation with presto blue, 100 ul of each well were transferred to a 96 well ELISA plate, and then absorbance at 570 and 620 nm wavelength was quantified in a robotic absorbance microplate reader (Tekan, Infinite F50). Final values were obtained as result of absorbance at 570 nm minus absorbance at 620 nm, following instructions from presto blue manufacturer (Thermo Fisher). […]

Human activated PBMC = test: Disc diffusion assay in semisolid media (agarose 0.5% / collagen 0.3% hydrogels), 6 well plates, resazurin read-out; assay type: cell-based; settings: different disc loads, FIG. 12
Experimental: PBMC T-Cells were activated though incubation with Dynabeads Human T-activator CD3/CD28 agonistic antibodies (Thermo Fisher, cat #111.32D) using a ratio 1:2 (dynabeads:PBMC) in a cell culture bottle. PBMC in the absent of dynabeads were also cultured as negative control of stimulation.
Paper discs of 6 mm diameter discs were used as immunosuppressant delivery units. Discs were obtained from manual drill of Whatman™, 3 mm CHR chromatography paper sheet or using ready to use commercial paper disc (DDbiolab). Discs were sterilized by autoclave. Immunosupressant drugs (Sigma Aldrich) was dissolved in pure ethanol (Sigma Aldrich) at 20 mg/ml and stored as stock solution at −20° C. till use. […]
Resazurin (blue) transition to resofurin (pink) was monitored with the naked eye or checked after overnight incubation depending on assay design. […] Results were collected through images acquisition with visible light (Sanyo camera S1070 and E1075), ultraviolet light (UVltec Geldoc Gel Light Imaging System) and fluorescence microplate multyreader (PHERAstar® FSX Multimode Microplate Reader from BMG LABTECH or Spark® 10M Tecan.). Inhibitory gradients halos or fronts induced by discs loaded with immunosuppressants were quantified with ImageJ software in a semi-automated process or Spark control v1.2.25 software. […]

SMILES	recovery of PBMC proliferative capacity versus positive control (stimulated human PBMCs; 96 standard wells microplate serial dilutions, all concentration tested, even femtomolar, FIGS. 14 and 15)	inhibitory effect over stimulated human PBMCs (stimulated human PBMCs; standard wells, all the concentrations tested (even at femtomolar levels))	inhibitory halos over activated human PBMC (Human activated PBMC)
CO[C@H]1C[C@@H]2CC[C@@H](C)[C@@](O)(O2)C(=O)C(=O)N2CCCC[C@H]2C(=O)O[C@H]([C@H](C)C[C@@H]2CC[C@@H](O)[C@H](OC)C2)CC(=O)[C@H](C)/C=C(\C)[C@@H](O)[C@@H](OC)C(=O)[C@H](C)C[C@H](C)/C=C/C=C/C=C/1C [Sirolimus]	did not recover proliferative capacity comparable with positive control level	at least some inhibitory level effect	–
C[C@H]1C[C@@H]2[C@H]([C@@H](O)C[C@@]3(C)[C@H]2CC[C@]3(O)C(=O)CO)[C@@]2(C)C=CC(=O)C=C12 [Methyl Prednisolone]	–	–	Dose dependant inhibitory halos
